In US20120030841A1, “Isoxazoline compounds for combating invertebrate pests” (BASF SE, priority 2009, published 2012):
Some entries share one result that the patent states for a list of compounds.

Experiments:
Assay type in all cases: in vivo
[1] = system: green peach aphid (Myzus persicae); test: Green peach aphid systemic test, artificial diet under membrane, 96-well plates; settings: 2500 ppm; adult aphids on treated artificial diet; 3 days
Description: (§1) The test solution was prepared the day it was used and in general at concentrations of […] (wt/vol).
For evaluating control of green peach aphid (Myzus persicae) through systemic means the test unit consisted of 96-well-microtiter plates containing liquid artificial diet under an artificial membrane.
The compounds were formulated using a solution containing 75% v/v water and 25% v/v DMSO. Different concentrations of formulated compounds were pipetted into the aphid diet, using a custom built pipetter, at two replications.
After application, 5-8 adult aphids were placed on the artificial membrane inside the microtiter plate wells. The aphids were then allowed to suck on the treated aphid diet and incubated at about 23±1° C. and about 50±5% relative humidity for 3 days. Aphid mortality and fecundity was then visually assessed.

[2] = system: tobacco budworm (Heliothis virescens); test: Tobacco budworm egg/larval test on insect diet, 96-well plates; settings: 2500 ppm; sprayed onto insect diet; egg and larval mortality; 5 days
Description: as §1
(§2) For evaluating control of tobacco budworm (Heliothis virescens) the test unit consisted of 96-well-microtiter plates containing an insect diet and 15-25 H. virescens eggs. The compounds were formulated using a solution containing 75% v/v water and 25% v/v DMSO. Different concentrations of formulated compounds were sprayed onto the insect diet at 10 μl, using a custom built micro atomizer, at two replications. After application, microtiter plates were incubated at about 28±1° C. and about 80±5% relative humidity for 5 days. Egg and larval mortality was then visually assessed.

[3] = system: boll weevil (Anthonomus grandis); test: Boll weevil egg/larval test on insect diet, 24-well plates; settings: 2500 ppm; sprayed onto insect diet; egg and larval mortality; 5 days
Description: as §1
For evaluating control of boll weevil (Anthonomus grandis) the test unit consisted of 24-well-microtiter plates containing an insect diet and 20-30 A. grandis eggs.
The compounds were formulated using a solution containing 75% v/v water and 25% v/v DMSO. Different concentrations of formulated compounds were sprayed onto the insect diet at 20 μl, using a custom built micro atomizer, at two replications.
After application, microtiter plates were incubated at about 23±1° C. and about 50±5% relative humidity for 5 days. Egg and larval mortality was then visually assessed.

[4] = system: Mediterranean fruitfly (Ceratitis capitata); test: Mediterranean fruitfly egg/larval test on insect diet, microtiter plates; settings: 2500 ppm; sprayed onto insect diet; egg and larval mortality; 5 days
Description: as §1
For evaluating control of Mediterranean fruitfly (Ceratitis capitata) the test unit consisted of microtiter plates containing an insect diet and 50-80 C. capitata eggs.
as §2, with “The” for “For evaluating control of tobacco budworm (Heliothis virescens) the test unit consisted of 96-well-microtiter plates containing an insect diet and 15-25 H. virescens eggs. The”, “5” for “10”

[5] = system: vetch aphid (Megoura viciae); test: Vetch aphid contact or systemic test on broad bean leaf disks; settings: 2500 ppm; sprayed onto leaf disks; adult aphids; 5 days

Measured: mortality in comparison with untreated controls

CC(=O)NCc1cccc2c(C3=NOC(c4cc(Cl)cc(Cl)c4)(C(F)(F)F)C3)ccnc12 (stereo not drawn) [Compound 1-9]
over 75%: [1] | [2] | [3] | [4]

O=C(NCC(F)(F)F)c1cccc2c(C3=NOC(c4cc(Cl)cc(Cl)c4)(C(F)(F)F)C3)ccnc12 (stereo not drawn) [Compound 1-7]
over 75%: [1] | [5] | [2] | [3]

O=C(O)c1cccc2c(C3=NOC(c4cc(Cl)cc(Cl)c4)(C(F)(F)F)C3)ccnc12 (stereo not drawn) [Compound 1-4]
over 75%: [1] | [3] | [4]

CNC(=O)c1cccc2c(C3=NOC(c4cc(Cl)cc(Cl)c4)(C(F)(F)F)C3)ccnc12 (stereo not drawn) [Compound 1-5]
over 75%: [2] | [3] | [4]

O=C(CSC(F)(F)F)NCc1cccc2c(C3=NOC(c4cc(Cl)cc(Cl)c4)(C(F)(F)F)C3)ccnc12 (stereo not drawn) [Compound 1-12]
over 75%: [1] | [2] | [3] | [4]

O=C(NCc1ccccn1)c1cccc2c(C3=NOC(c4cc(Cl)cc(Cl)c4)(C(F)(F)F)C3)ccnc12 (stereo not drawn) [Compound 1-6]
over 75%: [1] | [5] | [3] | [4]

CCC(=O)NCc1cccc2c(C3=NOC(c4cc(Cl)cc(Cl)c4)(C(F)(F)F)C3)ccnc12 (stereo not drawn) [Compound 1-10]
over 75%: [1] | [5] | [2] | [3] | [4]
